# From PubChem BioAssay AID445 (National Center for Advancing Translational Sciences (NCATS), 2006)
# Some of the results follow. Further columns of the screen follow, without active or inactive calls. The list favours compounds with an active or inconclusive main result. The note in brackets gives the kind of curve behind each potency; many fits are weak.
# Experiment: IkB Signaling
# Conditions: ABC-DLBCL IkBa-CBG/CBR dual luciferase ratio (green luciferase fused to IkBa over red control in OCI-Ly3 lymphoma cells), 4 h
# How it was run: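 Curves were fitted separately to fusion (green), unfused (red) and ratio luminescence, then classed by r2, magnitude and activity. Cells: OCI-Ly3, 4 h compound plus doxycycline at 37C; 10 uM MG-132 defined full response.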
# [1] = measured here: control luc red channel unless noted
# [2] = measured here: IkB-luc green channel
# [3] = measured here: control luc red channel
compound,measurement,setting,value
CC1(C(=O)NC2CCCCC2)Cc2ccccc2C(=O)N1Cc1ccc(Cl)cc1 (stereo not given),AC50,[1],"39.8 µM [falling, single point]"
Cc1nc2nc(SCC(=O)NCc3ccccc3)nn2c(C)c1Cc1ccccc1Cl,AC50,[1],"31.6 µM [falling, single point]"
O=C(CN1CCCN(Cc2ccccc2Cl)S1(=O)=O)Nc1ccc2c(c1)OCCO2,AC50,[1],"20 µM [falling, partial curve]"
CCN(CC)c1ccc(NC(=O)Nc2cccc(C(C)=O)c2)cc1,AC50,[1],"15.8 µM [falling, partial curve]"
CCn1c2ccccc2c2nnc(N3CCN(c4cccc(C)c4C)CC3)nc21,AC50,[1],"15.8 µM [falling, partial curve]"
O=C(NCCCN1CCOCC1)c1ccc2c(c1)N(Cc1ccccc1)C(=O)c1ccccc1S2,AC50,[1],"15.8 µM [falling, single point]"
CC1=C(C(=O)Nc2ccccc2)C(c2ccco2)C(C#N)=C(SCc2ccccc2)N1 (stereo not given),AC50,[1],"6.31 µM [falling, partial curve]"
CCOc1ccc(NC(=O)NC(C)c2c(-n3cccc3)sc(C)c2C)cc1 (stereo not given),AC50,[1],"31.6 µM [falling, single point]"
Cc1cccc(OCCCCn2nnc3sc4c(c3c2=O)CCC(C)C4)c1 (stereo not given),AC50,[1],"25.1 µM [falling, single point]"
COc1ccccc1NC(=O)Cn1c(=O)n(Cc2ccccc2)c(=O)c2ccccc21,AC50,[1],"0.0251 µM [falling, full curve]"
CC(=O)N[C@@H](Cc1c[nH]c2ccccc12)C(=O)OCc1cc(C(F)(F)F)cc(C(F)(F)F)c1,AC50,[1],"39.8 µM [falling, partial curve]"
COc1cccc2c1Oc1nc(-c3ccccc3)nc(SCC(=O)N3CCCCC3)c1C2,AC50,[1],"10 µM [falling, partial curve]"
COc1ccc(CN2COc3ccc4c(C)cc(=O)oc4c3C2)cc1,AC50,[1],"3.98 µM [rising, partial curve, poor fit]"
COC(=O)c1ccc(NC(=O)Nc2nnc(N(C)C3CCCCC3)s2)cc1,AC50,[1],"31.6 µM [falling, single point]"
N#CC1=C(SCc2ccccc2)NC(=O)C(C#N)C12CCCC2 (stereo not given),AC50,[1],"25.1 µM [falling, partial curve]"
Cc1cc(NC(=O)CS(=O)(=O)c2cn(Cc3ccccc3Cl)c3ccccc23)no1,AC50,[1],"12.6 µM [falling, partial curve]"
COC(=O)c1ccc(NC(=O)Cc2coc3cc(C)ccc23)cc1,AC50,[1],"39.8 µM [falling, single point]"
CCOc1ccc(-c2ccc(NS(=O)(=O)c3cc(C)c(C)cc3C)cc2)nn1,AC50,[1],"20 µM [falling, partial curve]"
O=C1CCCC2=C1C(c1ccco1)Nc1ccc(C(=O)c3ccccc3)cc1N2 (stereo not given),AC50,[1],"10 µM [falling, partial curve]"
CCN(C(=O)COc1cc(=O)n(C)c2ccccc12)c1cccc(C(F)(F)F)c1,AC50,[1],"20 µM [falling, partial curve]"
Cc1nn(-c2ccccc2)c(C)c1C(=O)OCC(=O)N1CCN(S(=O)(=O)c2ccccc2)CC1,AC50,[1],"7.94 µM [falling, partial curve]"
Cc1ccccc1CN1CCc2nc(Nc3ccc4c(c3)OCCO4)ncc2C1,AC50,[1],"25.1 µM [falling, partial curve]"
CCOc1ccc(CCNC(=O)c2ccc(CS(=O)(=O)Cc3ccccc3Cl)o2)cc1OCC,AC50,[1],"39.8 µM [falling, single point]"
CCOc1ccc(C(=O)Nc2ccc(-c3nc4cc(CC)ccc4o3)cc2)cc1,AC50,[1],"6.31 µM [falling, single point]"
O=C(c1cc2c(=O)[nH]c3ccccc3c2s1)N1CCN(c2ccc(F)cc2)CC1,AC50,[1],"31.6 µM [falling, partial curve]"
CC(NC(=O)CCn1c(=O)c2cccn2c2ccc(F)cc21)c1ccccc1 (stereo not given),AC50,[1],"39.8 µM [falling, single point]"
COc1cccc(NC(=O)CCc2nc(-c3cc(OC)c(OC)c(OC)c3)no2)c1,AC50,[1],"12.6 µM [falling, partial curve]"
CCOC(=O)c1ccc(NC(=O)c2cc3c(=O)n(C)c4ccccc4c3n2C)cc1,AC50,[1],"2 µM [falling, partial curve]"
COc1cc2c(C(=O)N3CCN(c4ccc(C)cc4)C(C)C3)cn(CC(C)C)c(=O)c2cc1OC (stereo not given),AC50,[1],"25.1 µM [falling, single point]"
Cn1c2ccccc2c2cc(C(=O)OCC(=O)N3CC(=O)Nc4ccccc43)sc21,AC50,[1],"12.6 µM [falling, partial curve]"
COc1ccc(N2CCN(C(=O)Cc3noc4ccc(C)cc34)CC2)cc1,AC50,[1],"15.8 µM [falling, partial curve]"
CCc1ccc(NC(=O)Cn2ccn(-c3cccc(Cl)c3)c(=O)c2=O)cc1,AC50,[1],"20 µM [falling, single point]"
Cn1c(C(=O)N2CCN(Cc3ccc4c(c3)OCO4)CC2)cc2c(=O)n(C)c3ccccc3c21,AC50,[1],"12.6 µM [falling, partial curve]"
COc1ccc(/C=C/c2nc(C#N)c(NC3CCCCC3)o2)cc1OC,AC50,[1],"39.8 µM [falling, single point]"
CCOc1ccc(S(=O)(=O)N(CC(=O)Nc2cc(C)on2)Cc2ccccc2Cl)cc1,AC50,[1],"25.1 µM [falling, partial curve]"
CCc1cccc(C)c1Nc1c(-c2cccc(O)c2)nc2cnccn12,AC50,[1],"0.1 µM [falling, full curve, poor fit]"
CCOc1ccccc1NC(=O)Cn1nc2c3cc(F)ccc3n(Cc3cccc(C)c3)cc-2c1=O,AC50,[1],"10 µM [falling, partial curve]"
CCC(=O)N1CCN(c2nc(C)nc3sc(C)c(C)c23)CC1,AC50,[1],"25.1 µM [falling, partial curve]"
CC1CCCN(c2csc3ccccc3c2=O)C1 (stereo not given),AC50,[1],"5.01 µM [falling, partial curve]"
CCCN(Cc1cccs1)C(=O)Nc1ccccc1C,AC50,[1],"31.6 µM [falling, single point]"
O=C(CN1CCN(S(=O)(=O)c2ccc(Br)cc2)CC1)Nc1ccc(F)cc1F,AC50,[1],"2.51 µM [falling, full curve]"
O=c1/c(=C\c2ccc3c(c2)OCO3)sc2n1CCCN=2,AC50,[1],"20 µM [falling, partial curve]"
Cc1nc2sccn2c(=O)c1S(=O)(=O)NCc1ccccc1,AC50,[1],"20 µM [falling, partial curve]"
COc1ccc(Nc2nnc(-c3ccc(C)c(S(=O)(=O)N4CCN(C)CC4)c3)c3ccccc23)cc1,AC50,[1],"15.8 µM [falling, partial curve]"
COc1ccc2sc(NC(=O)c3ccco3)nc2c1,AC50,[1],"2.51 µM [falling, full curve]"
Cc1ccc(C)c(N2CCN(C(=O)c3ccc4c(c3)c(C)c(C)n4C)CC2)c1,AC50,[1],"25.1 µM [falling, partial curve]"
CCOc1ccccc1C1CC(=O)NC(C)=C1C(=O)OCc1ccc(C)cc1 (stereo not given),AC50,[1],"39.8 µM [falling, single point]"
C=C(C)COc1ccc(-c2nc(N)ncc2Oc2ccccc2OCC)c(O)c1,AC50,[1],"5.01 µM [falling, partial curve]"
CCCCn1c(NC(=O)c2ccc(F)cc2)c(C#N)c2nc3ccccc3nc21,AC50,[2],"3.98 µM [rising, single point]"
same,AC50,[3],"0.501 µM [falling, full curve]"
Cc1oc2c(c1C(=O)Nc1ccc(Cl)cc1F)C1=NCCN1C=N2,AC50,[1],"12.6 µM [falling, partial curve]"
Cc1cccc(C)c1OCC(=O)N(Cc1ccc(Cl)cc1)CC1CCCO1 (stereo not given),AC50,[1],"12.6 µM [falling, single point]"
COc1ccc(OC)c(CNC(=O)CCCn2nc(C)c3c(C)n(-c4ccc(C)cc4)nc3c2=O)c1,AC50,[1],"5.01 µM [falling, partial curve]"
CCn1ccc2cc(S(=O)(=O)N3CCCN(C(=O)Nc4cc(Cl)ccc4C)CC3)ccc21,AC50,[1],"0.251 µM [falling, full curve]"
Cc1c(NC(=O)c2ccccc2N)cccc1C(=O)O,AC50,[2],"0.0794 µM [rising, full curve, poor fit]"
same,AC50,[3],"12.6 µM [falling, partial curve]"
C=CCOc1ccccc1/C=N/O,AC50,[1],"20 µM [falling, partial curve]"
O=C(/C=C/Nc1ccc(F)cc1)c1ccco1,AC50,[1],"15.8 µM [falling, partial curve]"
COc1ccc2c(c1)-c1nc(NC(=O)c3ccc(C)cc3)sc1CC2,AC50,[1],"7.94 µM [falling, partial curve]"
N#C/C(=C\c1c[nH]c2ccccc12)C(=O)c1ccc(O)c(O)c1,AC50,[1],"2.51 µM [falling, full curve]"
CC1CCN(C(=O)c2cc(-c3cccc(Cl)c3)on2)CC1,AC50,[1],"15.8 µM [falling, partial curve]"
COc1ccc(-c2noc(-c3ccc(NCCc4ccccc4)c([N+](=O)[O-])c3)n2)cc1OC,AC50,[1],"25.1 µM [falling, single point]"
COC(=O)c1ccc(Cl)cc1NC(=O)N(C)CCc1c(C)nn(C)c1C,AC50,[1],"6.31 µM [rising, single point]"
CCOC(=O)c1ccc(NC(=O)c2csc3c2CCCCC3)cc1,AC50,[1],"2.51 µM [falling, partial curve]"
Cc1ccc(-n2ccnc(NCCc3ccc(S(N)(=O)=O)cc3)c2=O)cc1C,AC50,[1],"2 µM [rising, partial curve] [measured here: IkB-luc green channel]"

# Rewritten bar-delimited: entries from further up
compound | measurement | setting | value
CC1(C(=O)NC2CCCCC2)Cc2ccccc2C(=O)N1Cc1ccc(Cl)cc1 (stereo not given) | AC50 | [1] | 39.8 µM [falling, single point]
COc1cc2c(C(=O)N3CCN(c4ccc(C)cc4)C(C)C3)cn(CC(C)C)c(=O)c2cc1OC (stereo not given) | AC50 | [1] | 25.1 µM [falling, single point]
CC1CCN(C(=O)c2cc(-c3cccc(Cl)c3)on2)CC1 | AC50 | [1] | 15.8 µM [falling, partial curve]
